Experimental findings from PubChem BioAssay AID1347423 (Functional Genomics Laboratory (NCATS/FGL), 2020) are described below.

The campaign covered roughly 52,000 sequences. About 210 (0.4%) were called active.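 The calls were made as follows: active = gene whose silencing raises cell survival under the drug, median off-target-corrected z-score across its silencing RNAs 2 or more; inactive = the rest.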 Some of the results follow.

The nature of the experiment: Resistance to Poly (ADP-Ribose) Polymerase inhibitor: Gene Identification via Genome-wide siRNA Screen. Conditions: mouse BRCA2 R2336H ES cells, olaparib, CellTiter-Glo viability; stronger effect = higher value. The method in brief:
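Genome-wide siRNA screen (3 siRNAs/gene, 20 nM) in mouse ES cells carrying hypomorphic BRCA2 R2336H; olaparib 500 nM added 48 h post-transfection, CellTiter-Glo viability 72 h later. Normalized to plate-median negative control; MAD z-scores, gene median, seed-adjusted.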
“GGUGGUGGCUCUCAACUUATT against A230020G22Rik”: the z-score was inactive: 1.28.

Take “GCCUUGCAUGACAGUUGUCTT against 2210016L21Rik”: the z-score was inactive: -1.14.

For “GGGCAAGAACAACUCACUUTT against 4933404G15Rik”, the z-score is inactive: -1.42. To GGCACCGCUAUUCAGAAUUTT against Fgf23 belongs inactive: 0.09; to CACCAAGGUCUGAGUACCUTT against LOC434459, inactive: 0.257.

With GCCGCUUUAAGAUUCCCACTT against Pde1b, the z-score was inactive: 0.362. To GGUACAGUAUGUGAUUCAATT against Bre belongs inactive: 0.743. To “GCUACAGUUACUUAAAUGATT against 4921508O11Rik” belongs inactive: -0.463. Under “CGCAGAACCCUGGUUUCUATT against D030016E14Rik” stands inactive: -0.495. Turning to CGGAUGCCAUGCAGAACUATT against Tm4sf2, the z-score was inactive: -1.3.

Take CGGAUGCACUUCUCCAAAATT against Tram1: the z-score is inactive: 1.11. As for GGCAAAAGCGAAGAAUUUATT against E2f5, the z-score is inactive: 0.522. To CCAUUAUGUCGAUUCUAUCTT against Ndph belongs inactive: -0.686. For GGUACUGGAGCAAUUGGCATT against Bpil2, the z-score is inactive: -0.121. To CCUCCACUUACUUUGGGUGTT against Cic belongs active: 1.48; to CGUUCAUGUUGUAAGUAUCTT against Olfr1196, inactive: 0.144.

With GGCCCUCAUCUUCAACAAGTT against BC036333, the z-score was inactive: 0.891. To “CCCAAAUCUGGUUCUCAAGTT against A630001O12Rik” belongs inactive: 0.504.

As to GGACUGUACAGUGGCAUUATT against Tnfsf7, the z-score is inactive: -0.292. Under GGGAACGUACAUUUCUCAATT against Il18r1 stands inactive: 0.84. In the case of “GGGAUUUGAGCAUCUUUCCTT against 2610040E16Rik”, the z-score is inactive: 0.798. In the case of “GGAGUUGGGUCAUCUUCGATT against C530028I08Rik”, the z-score was inactive: -1.02. Under GGAAAUAUGUGUCCGCACUTT against Mfap2 stands inactive: -0.336. For the sequence “CCAUGUUAUAUGAUAAGGGTT against 2410016O06Rik”, the z-score is inactive: -0.442.

In the case of GGACCAAUAAAUCCUGAUATT against Gzmm, the z-score is inactive: -0.669. Under “GCCAAUGAAAGAGACGUAGTT against 6430514L14Rik” stands inactive: -0.303.

Take GGCCACCUAUAUGCUGAAGTT against Ngef: the z-score is inactive: 1.11.

For GCCUGGAGAAGUGAACUCUTT against Tll1, the z-score is inactive: -0.227. Consider GCUCCCACGAUAUAGCCACTT against Gm839, for which the z-score was inactive: 0.651. Take GGAUAUACCAACCUACAAATT against Plxnc1: the z-score was inactive: -0.44. Turning to GGAGAAGUUUGAAGAGAUGTT against Cct5, the z-score is inactive: -0.951. Under CCUGACUCCGAUUUUGAGUTT against Elp3 stands inactive: -0.0744; under CGCAUUCUACGCCUUUAUGTT against Wbp11, inactive: 1.29; under CCGUGUUCUUAUGGGUUUUTT against Fgf13, inactive: -1.39. Under GCUCUCUUAUUGUGAACCUTT against Olfr1168 stands inactive: 0.0677. To CCCUGUCAUCAUUGAUGGGTT against Dhrs6 belongs inactive: -0.31; to CCUUAAUGAUGAUCCUAUATT against Neu3, inactive: 1.7; to GGCUUCGGAUAUGGCUACATT against Krtap16-4, inactive: -0.768. With “GCUCUUUACCCAUCACUAATT against 8030463A06Rik”, the z-score was inactive: -0.258. Regarding GGCAGAGGAAAUUCUGGAGTT against Rpl11, the z-score is inactive: -2.9.

Take GGAAUCGGUACUCUUCCACTT against Tcerg1l: the z-score was inactive: -0.398.

As to “CCCAUUGGUAUACUUGGAUTT against 2210407C18Rik”, the z-score was inactive: 0.459. Under “GGGUGACUACAAAUACCUGTT against 4933426M11Rik” stands inactive: 0.117; under CCCUACGCUUCAUCAAGCUTT against Glp1r, inactive: 0.883. To GGUCUACCUGGAGUAAUGCTT against Sp1 belongs inactive: -0.777; to GGUAUUCACACUGAAGCCCTT against H2-DMa, inactive: -0.295; to GGAUGAGAAAUACUUUCGGTT against C8a, inactive: 0.798.

GGCAUAUAUACAUACCUCCTT against Olfr1389: the z-score is inactive: -1.4. To GGUGUUUUUGUCCAGGUCATT against Kcnk3 belongs inactive: 0.324. Under CCAUCAAGGGAGGUCCUUUTT against Renbp stands inactive: -1.26; under ACCUUCAACACCAGUUUGGTT against Olfr1393, inactive: -0.217; under GGCUGAGAUAAUCACAUUUTT against Dbhl1, inactive: -1.14.

Regarding CGAGUGAGUAUUUUCUCUUTT against Gdf10, the z-score was inactive: 0.585. Under GGAUGAAGAACUGAAAUCUTT against Unc13b stands inactive: 1.51; under GGAAUAUGAGAGAAGCUCATT against Dpf2, inactive: -1.17; under GCUAUAGUGCCAAAUUUGCTT against Alad, inactive: 1.43. Turning to “CCAAAUCCCAUCGAGUUCCTT against 2810410M20Rik”, the z-score was inactive: 0.562. To GGCCUGUGGUUAUGCUGUGTT against Cyp2b10 belongs inactive: 0.244; to GGUGUCCUAUAACCAAGCATT against Drpla, inactive: -0.211; to “GGUAUAAGGUCAUAGAAUUTT against E230016K23Rik”, inactive: 0.756. To “CCAUAAGAAAGGAGACUAGTT against 9230117N10Rik” belongs inactive: -2.11; to GGCCACGACUCUUUGUUUATT against Ush1g, inactive: -0.26; to GGUAUGUCCUCUGGUCAAUTT against Plunc, inactive: 0.447.

As for GCAGGUAUGUACCGUUUCUTT against Etos1, the z-score was inactive: -0.584. Under GCUUGAAUCUAGCAGCUUUTT against Dvl1 stands inactive: -0.211. To GGGCAUCUUUGCAUUCAAGTT against Frs3 belongs inactive: 0.333; to “GGUGGAUGCCUUGAAUAUGTT against 1700029P11Rik”, inactive: -0.0529. Take GGAGAAAAUACAACUGUGATT against Ctrc: the z-score was inactive: 0.985. Turning to GGAACUAAUGAAACAGCUGTT against Abat, the z-score is inactive: -1.34. To CCUUGCCAUAAGUGAUUUATT against Gpr74 belongs inactive: 0.588. Regarding GGAAAUCAUUAGCACCUAGTT against Sox13, the z-score is inactive: -0.555. To GGAAAUGUGACCACAAAGATT against Tas2r120 belongs inactive: -0.347; to GGGUUGCCUACUGCAUUAUTT against Cbx2, inactive: -1.18. Under GCUGCUACGUUCUUGUAAATT against Pmp2 stands inactive: -0.271; under GCUGGAAUGCAAGGGCUUCTT against Gchfr, inactive: -0.978.

As to CGCUCCAUCCAAGAGUUCUTT against Gp1bb, the z-score is inactive: -0.142. To “GAUGUACGAGAGCUUAGCATT against 2900010M23Rik” belongs inactive: -0.877. With GGUCGUUGCCAACAUUGCUTT against MGC74379, the z-score was inactive: 1.91. On to GGAACCAUGAAAUAAAUGUTT against Acad8, for which the z-score is inactive: -1.01. Under GGAACCUAUUGCUGUUUUATT against Map2k3 stands inactive: 0.408; under GGAGGAGAGGUACAAGAUGTT against Pcyt2, inactive: 0.205; under “GCUAGAAUGUCUCAAUACUTT against 2600001J17Rik”, inactive: -2.77. With “GGGUUCUCUUGCCUACACATT against 2610020N02Rik”, the z-score is inactive: -1.72. Take GGUUUUGAGUGAGAAAUGGTT against Plekhb2: the z-score is inactive: -0.303. For the sequence GGCAUUGGAAUAAAAUUUGTT against Rfk, the z-score was inactive: 0.826. On to GCAGAUGUAAAUAGCAAAATT against Apc, for which the z-score was inactive: 0.747.

Consider GGUUCAGAUGGGAAAAAGGTT against Khdrbs2, for which the z-score is inactive: -2. Under “CGUUUUUGUCUAGUUUGAATT against 2900006F19Rik” stands inactive: 0.426.

On to CCUUUUACUUAGACAUCCUTT against 6.33E+19, for which the z-score is inactive: 0.0895. GGACUUCAAAGAUAACAACTT against Timm44: the z-score is inactive: -2.21. To GGCCAGUUUGACAUUCCUGTT against Mdh1b belongs inactive: 1.39. Under GGACAUGUGUAAAUAAUCATT against En2 stands inactive: -1.1; under CCCAUCUCCUCGAAUAAAUTT against Mtch1, inactive: 1.47; under GGCAGAUGCUGAAACACUGTT against BC016423, inactive: -1.31. Under GCCUCACAACUCUUACACCTT against Ptprc stands inactive: 0.888; under GGAAAGGAGAAGAGAAAUGTT against Scyl1, inactive: 0.694; under UGAUCGAGAAUGAACUUACTT against Kb14, inactive: 0.327. Take GGAAGAGAGAUGGAAAAAATT against Gcnt1: the z-score is inactive: -0.555.

For the sequence GCACUCAAAUGGUAGAUUCTT against Socs6, the z-score is inactive: 1.06.

Consider “GGAGAACUGUGUACGAUGGTT against C230093N12Rik”, for which the z-score is inactive: -1.1. Under CGCAAAGGAAGAAAUGCUGTT against Klra17 stands inactive: 0.15; under GGCUUUUUAUUCAAAUCCCTT against Ky, inactive: -0.147; under GGAAGAUGAUAACAACAACTT against Kif3c, inactive: 1.8. To GAAGCAGAACUUGAGCAAGTT against Phgdh belongs inactive: 1.11.
